These are yes or no findings as the source states them, for the method shown. Binding seen in cells or lysates may run through a third protein. These calls come from enrichment with a bait or labelling near it, and not all partners need be listed. Sequences can lack the tags named with a protein.
Biological target: T1, Myc-DACH1-FL (human) (UniProt Q9UI36)
T1 sequence: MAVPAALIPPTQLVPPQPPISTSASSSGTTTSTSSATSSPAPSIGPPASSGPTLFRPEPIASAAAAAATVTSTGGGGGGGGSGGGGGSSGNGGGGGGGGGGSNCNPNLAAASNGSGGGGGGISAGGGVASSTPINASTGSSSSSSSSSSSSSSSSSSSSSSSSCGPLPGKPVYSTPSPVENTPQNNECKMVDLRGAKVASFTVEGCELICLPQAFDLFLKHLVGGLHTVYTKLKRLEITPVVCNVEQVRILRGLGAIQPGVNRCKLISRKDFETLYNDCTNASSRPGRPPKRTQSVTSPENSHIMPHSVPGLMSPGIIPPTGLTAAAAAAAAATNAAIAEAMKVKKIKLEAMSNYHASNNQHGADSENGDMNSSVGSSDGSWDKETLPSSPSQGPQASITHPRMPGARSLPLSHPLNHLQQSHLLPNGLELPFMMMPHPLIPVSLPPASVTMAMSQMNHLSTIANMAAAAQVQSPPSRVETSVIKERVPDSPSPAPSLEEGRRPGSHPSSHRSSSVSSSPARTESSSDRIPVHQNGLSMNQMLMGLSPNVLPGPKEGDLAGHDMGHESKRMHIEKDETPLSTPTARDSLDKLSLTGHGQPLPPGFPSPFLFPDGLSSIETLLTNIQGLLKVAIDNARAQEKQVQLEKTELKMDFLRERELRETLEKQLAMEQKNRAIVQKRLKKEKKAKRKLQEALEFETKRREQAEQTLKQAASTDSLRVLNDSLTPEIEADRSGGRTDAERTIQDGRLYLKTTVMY
Assay: affinity purification with mass spectrometry; Myc-DACH1 stably expressed in HCT8 cells; whole cell extracts purified with anti-Myc affinity beads, then mass spectrometry

By UniProt entry, the sequences of proteins in these tests, tags left out.
UniProt Q93009: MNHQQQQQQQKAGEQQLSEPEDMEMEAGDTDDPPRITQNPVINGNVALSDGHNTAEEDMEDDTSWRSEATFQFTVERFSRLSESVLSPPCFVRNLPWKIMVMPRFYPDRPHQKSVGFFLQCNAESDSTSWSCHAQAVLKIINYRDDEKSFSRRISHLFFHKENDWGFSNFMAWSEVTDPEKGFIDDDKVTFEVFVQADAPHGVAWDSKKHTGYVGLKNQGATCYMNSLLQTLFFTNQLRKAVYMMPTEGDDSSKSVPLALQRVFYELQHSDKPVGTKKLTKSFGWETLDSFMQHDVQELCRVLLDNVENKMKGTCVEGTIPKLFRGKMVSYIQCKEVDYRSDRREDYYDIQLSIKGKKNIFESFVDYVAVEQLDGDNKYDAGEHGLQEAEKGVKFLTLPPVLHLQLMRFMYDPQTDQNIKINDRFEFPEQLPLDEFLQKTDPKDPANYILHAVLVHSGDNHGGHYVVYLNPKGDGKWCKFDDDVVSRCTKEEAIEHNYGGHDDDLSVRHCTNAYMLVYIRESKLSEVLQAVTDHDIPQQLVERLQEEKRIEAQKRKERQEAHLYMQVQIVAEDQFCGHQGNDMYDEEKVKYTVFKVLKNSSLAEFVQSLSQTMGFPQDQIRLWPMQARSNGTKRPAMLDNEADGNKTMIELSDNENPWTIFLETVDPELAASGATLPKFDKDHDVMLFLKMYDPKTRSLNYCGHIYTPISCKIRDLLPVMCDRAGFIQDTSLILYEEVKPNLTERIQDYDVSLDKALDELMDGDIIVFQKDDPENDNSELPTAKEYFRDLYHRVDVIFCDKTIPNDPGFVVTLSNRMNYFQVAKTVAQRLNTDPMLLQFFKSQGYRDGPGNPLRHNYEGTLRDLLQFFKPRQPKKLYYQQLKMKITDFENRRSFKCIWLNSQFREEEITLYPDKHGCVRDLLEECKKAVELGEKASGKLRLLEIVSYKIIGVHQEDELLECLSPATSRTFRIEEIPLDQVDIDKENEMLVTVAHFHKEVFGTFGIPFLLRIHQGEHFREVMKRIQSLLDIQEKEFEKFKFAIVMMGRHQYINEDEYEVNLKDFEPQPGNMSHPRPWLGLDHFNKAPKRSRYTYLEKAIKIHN

Substance: endogenous USP7 (from UniProt Q93009 1-1102) (enzyme)
- binding: binds

Reference: article PMC12089419
